Measured values taken from patent publication US20140038203A1, “METHODS FOR DETECTING OR PREDICTING KIDNEY DISEASE” (MUSC FOUNDATION FOR RESEARCH DEVELOPMENT, priority 2012, published 2014).

Assay: RRT study: LC-MS/MS urinary proteomics, AKI after cardiac surgery, RRT vs No RRT
Design: species or system human
Settings: patients who did vs did not require RRT/dialysis; for Up or Down: direction of urinary abundance; for Mean Fold Change: read with the Up or Down column

Row | Molecule | Up or Down | Mean Fold Change
1 | Ubiquitin carboxyl-terminal hydrolase 8 (protein, UniProt P40818 1-1118, looked up) Ubiquitin carboxyl-terminal …: MPAVASVPKELYLSSSLKDLNKKTEVKPEKISTKSYVHSALKIFKTAEECRLDRDEERAYVLYMKYVTVYNLIKKRPDFKQQQDYFHSILGPGNIKKAVEEAERLSESLKLRYEEAEVRKKLEEKDRQEEAQRLQQKRQETGREDGGTLAKGSLENVLDSKDKTQKSNGEKNEKCETKEKGAITAKELYTMMTDKNISLIIMDARRMQDYQDSCILHSLSVPEEAISPGVTASWIEAHLPDDSKDTWKKRGNVEYVVLLDWFSSAKDLQIGTTLRSLKDALFKWESKTVLRNEPLVLEGGYENWLLCYPQYTTNAKVTPPPRRQNEEVSISLDFTYPSLEESIPSKPAAQTPPASIEVDENIELISGQNERMGPLNISTPVEPVAASKSDVSPIIQPVPSIKNVPQIDRTKKPAVKLPEEHRIKSESTNHEQQSPQSGKVIPDRSTKPVVFSPTLMLTDEEKARIHAETALLMEKNKQEKELRERQQEEQKEKLRKEEQEQKAKKKQEAEENEITEKQQKAKEEMEKKESEQAKKEDKETSAKRGKEITGVKRQSKSEHETSDAKKSVEDRGKRCPTPEIQKKSTGDVPHTSVTGDSGSGKPFKIKGQPESGILRTGTFREDTDDTERNKAQREPLTRARSEEMGRIVPGLPSGWAKFLDPITGTFRYYHSPTNTVHMYPPEMAPSSAPPSTPPTHKAKPQIPAERDREPSKLKRSYSSPDITQAIQEEEKRKPTVTPTVNRENKPTCYPKAEISRLSASQIRNLNPVFGGSGPALTGLRNLGNTCYMNSILQCLCNAPHLADYFNRNCYQDDINRSNLLGHKGEVAEEFGIIMKALWTGQYRYISPKDFKITIGKINDQFAGYSQQDSQELLLFLMDGLHEDLNKADNRKRYKEENNDHLDDFKAAEHAWQKHKQLNESIIVALFQGQFKSTVQCLTCHKKSRTFEAFMYLSLPLASTSKCTLQDCLRLFSKEEKLTDNNRFYCSHCRARRDSLKKIEIWKLPPVLLVHLKRFSYDGRWKQKLQTSVDFPLENLDLSQYVIGPKNNLKKYNLFSVSNHYGGLDGGHYTAYCKNAARQRWFKFDDHEVSDISVSSVKSSAAYILFYTSLGPRVTDVAT | Up | –
2 | Signal-regulatory protein beta-1 (protein, UniProt O00241 30-398, looked up) Signal-regulatory protein …: EDELQVIQPEKSVSVAAGESATLRCAMTSLIPVGPIMWFRGAGAGRELIYNQKEGHFPRVTTVSELTKRNNLDFSISISNITPADAGTYYCVKFRKGSPDDVEFKSGAGTELSVRAKPSAPVVSGPAVRATPEHTVSFTCESHGFSPRDITLKWFKNGNELSDFQTNVDPAGDSVSYSIHSTARVVLTRGDVHSQVICEIAHITLQGDPLRGTANLSEAIRVPPTLEVTQQPMRAENQANVTCQVSNFYPRGLQLTWLENGNVSRTETASTLIENKDGTYNWMSWLLVNTCAHRDDVVLTCQVEHDGQQAVSKSYALEISAHQKEHGSDITHEAALAPTAPLLVALLLGPKLLLVVGVSAIYICWKQKA | Up | 1.442
3 | Heparin cofactor 2 (protein, UniProt P05546 20-499, looked up) Heparin cofactor 2: GSKGPLDQLEKGGETAQSADPQWEQLNNKNLSMPLLPADFHKENTVTNDWIPEGEEDDDYLDLEKIFSEDDDYIDIVDSLSVSPTDSDVSAGNILQLFHGKSRIQRLNILNAKFAFNLYRVLKDQVNTFDNIFIAPVGISTAMGMISLGLKGETHEQVHSILHFKDFVNASSKYEITTIHNLFRKLTHRLFRRNFGYTLRSVNDLYIQKQFPILLDFKTKVREYYFAEAQIADFSDPAFISKTNNHIMKLTKGLIKDALENIDPATQMMILNCIYFKGSWVNKFPVEMTHNHNFRLNEREVVKVSMMQTKGNFLAANDQELDCDILQLEYVGGISMLIVVPHKMSGMKTLEAQLTPRVVERWQKSMTNRTREVLLPKFKLEKNYNLVESLKLMGIRMLFDKNGNMAGISDQRIAIDLFKHQGTITVNEEGTQATTVTTVGFMPLSTQVRFTVDRPFLFLIYEHRTSCLLFMGRVANPSRS | Up | –
4 | Complement C2 (protein, UniProt P06681 21-752, looked up) Complement C2: APSCPQNVNISGGTFTLSHGWAPGSLLTYSCPQGLYPSPASRLCKSSGQWQTPGATRSLSKAVCKPVRCPAPVSFENGIYTPRLGSYPVGGNVSFECEDGFILRGSPVRQCRPNGMWDGETAVCDNGAGHCPNPGISLGAVRTGFRFGHGDKVRYRCSSNLVLTGSSERECQGNGVWSGTEPICRQPYSYDFPEDVAPALGTSFSHMLGATNPTQKTKESLGRKIQIQRSGHLNLYLLLDCSQSVSENDFLIFKESASLMVDRIFSFEINVSVAIITFASEPKVLMSVLNDNSRDMTEVISSLENANYKDHENGTGTNTYAALNSVYLMMNNQMRLLGMETMAWQEIRHAIILLTDGKSNMGGSPKTAVDHIREILNINQKRNDYLDIYAIGVGKLDVDWRELNELGSKKDGERHAFILQDTKALHQVFEHMLDVSKLTDTICGVGNMSANASDQERTPWHVTIKPKSQETCRGALISDQWVLTAAHCFRDGNDHSLWRVNVGDPKSQWGKEFLIEKAVISPGFDVFAKKNQGILEFYGDDIALLKLAQKVKMSTHARPICLPCTMEANLALRRPQGSTCRDHENELLNKQSVPAHFVALNGSKLNINLKMGVEWTSCAEVVSQEKTMFPNLTDVREVVTDQFLCSGTQEDESPCKGESGGAVFLERRFRFFQVGLVSWGLYNPCLGSADKNSRKRAPRSKVPPPRDFHINLFRMQPWLRQHLGDVLNFLPL | Up | –
5 | Aminoacylase-1 (protein, UniProt Q03154 1-408, looked up) Aminoacylase-1: MTSKGPEEEHPSVTLFRQYLRIRTVQPKPDYGAAVAFFEETARQLGLGCQKVEVAPGYVVTVLTWPGTNPTLSSILLNSHTDVVPVFKEHWSHDPFEAFKDSEGYIYARGAQDMKCVSIQYLEAVRRLKVEGHRFPRTIHMTFVPDEEVGGHQGMELFVQRPEFHALRAGFALDEGIANPTDAFTVFYSERSPWWVRVTSTGRPGHASRFMEDTAAEKLHKVVNSILAFREKEWQRLQSNPHLKEGSVTSVNLTKLEGGVAYNVIPATMSASFDFRVAPDVDFKAFEEQLQSWCQAAGEGVTLEFAQKWMHPQVTPTDDSNPWWAAFSRVCKDMNLTLEPEIMPAATDNRYIRAVGVPALGFSPMNRTPVLLHDHDERLHEAVFLRGVDIYTRLLPALASVPALPSDS | Up | 1.417
6 | Glutaminyl-peptide cyclotransferase (protein, UniProt Q16769 29-361, looked up) Glutaminyl-peptide …: VSPSASAWPEEKNYHQPAILNSSALRQIAEGTSISEMWQNDLQPLLIERYPGSPGSYAARQHIMQRIQRLQADWVLEIDTFLSQTPYGYRSFSNIISTLNPTAKRHLVLACHYDSKYFSHWNNRVFVGATDSAVPCAMMLELARALDKKLLSLKTVSDSKPDLSLQLIFFDGEEAFLHWSPQDSLYGSRHLAAKMASTPHPPGARGTSQLHGMDLLVLLDLIGAPNPTFPNFFPNSARWFERLQAIEHELHELGLLKDHSLEGRYFQNYSYGGVIQDDHIPFLRRGVPVLHLIPSPFPEVWHTMDDNEENLDESTIDNLNKILQVFVLEYLHL | Up | –
7 | Cystatin-S (protein, UniProt P01036 21-141, looked up) Cystatin-S: SSSKEENRIIPGGIYDADLNDEWVQRALHFAISEYNKATEDEYYRRPLQVLRAREQTFGGVNYFFDVEVGRTICTKSQPNLDTCAFHEQPELQKKQLCSFEIYEVPWEDRMSLVNSRCQEA | Up | –
8 | Di-N-acetylchitobiase (protein, UniProt Q01459 39-385, looked up) Di-N-acetylchitobiase: TDCPCPEPELCRPIRHHPDFEVFVFDVGQKTWKSYDWSQITTVATFGKYDSELMCYAHSKGARVVLKGDVSLKDIIDPAFRASWIAQKLNLAKTQYMDGINIDIEQEVNCLSPEYDALTALVKETTDSFHREIEGSQVTFDVAWSPKNIDRRCYNYTGIADACDFLFVMSYDEQSQIWSECIAAANAPYNQTLTGYNDYIKMSINPKKLVMGVPWYGYDYTCLNLSEDHVCTIAKVPFRGAPCSDAAGRQVPYKTIMKQINSSISGNLWDKDQRAPYYNYKDPAGHFHQVWYDNPQSISLKATYIQNYRLRGIGMWNANCLDYSGDAVAKQQTEEMWEVLKPKLLQR | Up | –
